The supplement of paper PMC3334620
Over roughly 33,000 sequences, “E-score (-0.5 to 0.5)” has its median near -0.015; the highest 2% begin near 0.3. This is one part of the list.

molecular target: T1, Abf1 (UniProt P14164); test: PBM E-score (8-mer binding enrichment) (E-score (-0.5 to 0.5)); higher = stronger / more preferred TF binding; details: protein concentration: 200 nM; construct: GST-full length
T1 sequence: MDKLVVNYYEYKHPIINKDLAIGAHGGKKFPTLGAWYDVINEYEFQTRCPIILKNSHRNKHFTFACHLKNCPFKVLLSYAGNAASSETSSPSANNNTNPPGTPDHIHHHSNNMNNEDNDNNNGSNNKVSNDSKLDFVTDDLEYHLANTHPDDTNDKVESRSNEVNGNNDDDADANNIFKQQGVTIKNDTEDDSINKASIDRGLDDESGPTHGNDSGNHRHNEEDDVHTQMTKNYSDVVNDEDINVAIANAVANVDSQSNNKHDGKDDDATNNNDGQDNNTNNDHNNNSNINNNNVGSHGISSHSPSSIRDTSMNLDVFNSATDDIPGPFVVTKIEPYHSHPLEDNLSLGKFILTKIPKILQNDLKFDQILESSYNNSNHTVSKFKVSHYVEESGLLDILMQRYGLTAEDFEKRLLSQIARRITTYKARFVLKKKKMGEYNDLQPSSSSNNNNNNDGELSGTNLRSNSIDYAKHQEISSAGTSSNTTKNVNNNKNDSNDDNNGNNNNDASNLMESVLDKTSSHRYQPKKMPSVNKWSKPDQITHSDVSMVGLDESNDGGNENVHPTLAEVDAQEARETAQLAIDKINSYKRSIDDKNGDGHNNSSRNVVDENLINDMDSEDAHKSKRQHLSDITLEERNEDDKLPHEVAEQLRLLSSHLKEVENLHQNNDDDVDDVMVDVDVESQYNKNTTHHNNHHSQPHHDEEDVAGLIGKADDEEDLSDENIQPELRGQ
How it was run: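 GST-tagged yeast TFs (full-length or DNA-binding domain) were made by PURExpress in vitro transcription/translation and applied at about 100-200 nM to universal all-10-mer Agilent arrays. The arrays were made double-stranded by primer extension, on fresh or once-stripped slides. Bound protein was detected with fluorescent anti-GST, and scans were normalised with masliner. Each ungapped eight-base word, pooled with its reverse complement, received an E-score (modified Wilcoxon-Mann-Whitney statistic) from the Universal PBM Analysis Suite.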

Row | Sequence | PBM E-score
1 | AGTGATAA | 0.445
2 | CCCATGAA | -0.138
3 | TCAGGCAA | 0.0812
4 | ATGCAGAC | 0.106
5 | ACTTAGAT | 0.209
6 | GGACATAC | 0.0814
7 | AACAAATG | 0.105
8 | CCTTTTAC | 0.0826
9 | CGGAGCTC | -0.138
10 | CTTCCAAA | 0.051
11 | GAAGATCC | -0.194
12 | ACTGCCGC | -0.0637
13 | AGTAAAAC | -0.0817
14 | CGTGCATC | 0.203
15 | CCCGCGAA | 0.0505
16 | ATCGTAAG | 0.108
17 | AGATAACA | 0.183
18 | GTGCTCTA | 0.0515
19 | CATAGAAC | -0.203
20 | AACGTTTG | -0.141
21 | CAGCTAGA | 0.0775
22 | CCTGACGC | -0.243
23 | AAAGGTTG | -0.0789
24 | CAAAAATG | -0.0179
25 | AGGACAGG | -0.0767

Row | Sequence | PBM E-score
26 | AACTAGGA | -0.0176
27 | TAATGTCA | 0.161
28 | GAAGATAC | 0.036
29 | CCCACCCA | -0.164
30 | CTATTTGA | 0.0272
31 | AGAACTTC | 0.0209
32 | AGTATTAT | 0.106
33 | AACTATGG | -0.215
34 | GCTAGGCC | -0.0546
35 | GTTAACGA | 0.252
36 | ACTGGACG | 0.0734
37 | CAGCTGGA | 0.0243
38 | GCACTAAA | 0.16
39 | GGCGAATA | -0.048
40 | ACCAGAGA | -0.0205
41 | GGAGTCAA | -0.31
42 | AGATTGTC | 0.168
43 | AACGAACG | 0.144
44 | CTTGTCTA | -0.0203
45 | AAGGCTCC | -0.299
46 | CCGACCCC | -0.351
47 | CTCGTTAC | 0.0169
48 | TATGTCGA | 0.0949
49 | CTCTGCGA | 0.0546
50 | AAATACGT | 0.039

Row | Sequence | PBM E-score
51 | CTTCTTGA | -0.0179
52 | CTTTACAA | -0.021
53 | AGATCCCA | -0.0562
54 | AGACGCTC | -0.119
55 | CTATCACC | 0.226
56 | CACTGCTA | -0.0546
57 | ACGCGGGG | -0.232
58 | ACAGTAAC | 0.00611
59 | GGCACGCA | -0.0922
60 | CCCCTAGC | -0.318
61 | AGACCTAG | 0.00079
62 | CAATCCTA | -0.177
63 | AGTCGGGG | -0.17
64 | AACTAGTG | -0.0264
65 | CGTCCGAG | 0.211
66 | CGTTAGTA | 0.248
67 | GATAACCA | 0.185
68 | AACAATCG | -0.029
69 | CGGTCTAC | -0.0256
70 | GGCTGACC | -0.112
71 | ATAGGCGA | 0.0309
72 | AGGACATG | -0.0301
73 | TCGAGCAA | 0.1
74 | TCGGAGAA | -0.0796
75 | CGACGAGC | 0.125

Row | Sequence | PBM E-score
76 | ACTGGGGC | -0.165
77 | CCTTAAGC | -0.123
78 | GCAGGCGA | -0.0842
79 | GACAGGTC | -0.101
80 | CGGACTTA | -0.0103
81 | CAGCGTTA | 0.0527
82 | TAAATAAA | 0.251
83 | AGGTATGC | 0.0905
84 | AAGGGCGC | -0.126
85 | CCGGCCAC | -0.171
86 | ACTAAGTA | 0.151
87 | ATAGTGCG | -0.0459
88 | AACACGGA | 0.0732
89 | CATCTACC | -0.115
90 | AACAGACA | -0.0369
91 | AGATGCAA | -0.266
92 | AACAGCAG | 0.0461
93 | GACAGACC | -0.275
94 | CAATTCCG | 0.0515
95 | AGATTCTC | -0.146
96 | ATCACGAC | 0.363
97 | CGTATCAA | 0.343
98 | GCACTTGA | -0.047
99 | AACAATAG | -0.149
100 | CTGATCAG | 0.0203

Row | Sequence | PBM E-score
101 | CACATGTC | 0.0654
102 | ACATAAGA | 0.0752
103 | ATTGTCGA | -0.0794
104 | AATGCAGG | 0.0257
105 | TGATTCCA | -0.118
106 | ACACCTTA | -0.0258
107 | ATGCGCTC | -0.00982
108 | AGGTTGGC | -0.102
109 | GTGGCACA | -0.18
110 | ATGCGCCG | -0.00069
111 | CAGGAGCC | -0.235
112 | AGTGCGCA | 0.0615
113 | ACTACGAT | 0.146
114 | CTGGTTCC | -0.0717
115 | GCCGGCGC | -0.04
116 | CTTTTTTC | 0.0937
117 | CCGATGAA | -0.101
118 | TAGCCCGA | -0.0487
119 | AGTGTACC | -0.0969
120 | CACTTATG | 0.0685
121 | GACCCAGA | 0.0297
122 | CCCGAAGC | 0.0369
123 | TACTGCCA | -0.00789
124 | AGAGTCCT | -0.0999
125 | GATCCTGC | 0.0793

Row | Sequence | PBM E-score
126 | ACCAGAGT | -0.31
127 | CGCGGGAG | -0.207
128 | TCTTCTCA | 0.0808
129 | ATTAAAAC | 0.0586
130 | GCGCCAAC | -0.0968
131 | ACCGCGAT | 0.0301
132 | AGGCGATC | 0.061
133 | AAGATCCC | 0.096
134 | ATTACACA | 0.166
135 | GAGTTCAA | 0.086
136 | CCACATGC | -0.0677
137 | GGATGAGA | -0.0398
138 | CGTGGTGC | -0.278
139 | ATTGGTGA | 0.0539
140 | GGGCGGCA | -0.347
141 | CTGAATCC | -0.0583
142 | ACTTAGGG | 0.0866
143 | AAAGATTG | 0.0385
144 | CGGTTTGC | -0.0918
145 | CATGGTGC | -0.0453
146 | GTCATTTA | 0.313
147 | AGCCTCAG | -0.161
148 | AGGAATCG | 0.0975
149 | CCGAGCGG | -0.227
150 | AAGTTTAG | 0.0135

Row | Sequence | PBM E-score
151 | CACCGCGC | 0.042
152 | AGGGTTTG | -0.2
153 | CGGTTTGA | -0.0256
154 | ATTCTGAA | 0.105
155 | ATCACACG | 0.281
156 | CATCGTCC | 0.137
157 | GCGGCCGA | -0.0205
158 | CAGGAGCA | -0.118
159 | TAAATAGA | -0.0733
160 | AGCGACTG | -0.0361
161 | ACACAGCA | 0.148
162 | AAGACTGC | -0.209
163 | AAATACCT | 0.0896
164 | CCTATTGC | -0.169
165 | CGACCTGA | 0.104
166 | GATCCCAA | -0.0955
167 | GCATGGGA | -0.115
168 | AAATTCTC | 0.00746
169 | ACACTGGA | -0.0493
170 | GCTGTATA | -0.105
171 | AATCAGCG | 0.0737
172 | AACGCCGT | 0.23
173 | ACTAACTG | -0.0328
174 | GACATACA | 0.214
175 | ACCCTCGG | -0.249

Row | Sequence | PBM E-score
176 | CATACTGA | -0.108
177 | CATGAGGG | -0.0568
178 | GCCAGAGA | -0.168
179 | CATTTGTC | 0.113
180 | GTAGAGGA | -0.0589
181 | AAGGAGGA | -0.14
182 | GCCACTGA | -0.224
183 | CCCTTGAG | -0.167
184 | ATAACTTC | 0.101
185 | GAAGGTTA | -0.152
186 | AACGTCTA | 0.0493
187 | GGAAAATA | 0.0544
188 | GAGCCTGA | -0.165
189 | CCATAACG | -0.0564
190 | ATTTCACG | 0.254
191 | AGACTAAG | 0.0756
192 | ATTGAATC | 0.101
193 | AGAGAAGG | -0.106
194 | CGGAACCC | -0.0317
195 | GAGCTTGA | -0.14
196 | ACCTGCTA | -0.0706
197 | AAGGTTTC | -0.0855
198 | GCCTGGAC | -0.0911
199 | AGTTGAGG | -0.116
200 | ACTTATCC | 0.11

Rewritten in CSV form: part of the list above.
Row,Sequence,PBM E-score
177,CATGAGGG,-0.0568
182,GCCACTGA,-0.224
184,ATAACTTC,0.101
197,AAGGTTTC,-0.0855

Look-ups from the entries so far:
PBM E-score, GGAAAATA reads 0.0544
PBM E-score, ATAACTTC reads 0.101
PBM E-score, CATTTGTC reads 0.113
PBM E-score, GAGCCTGA reads -0.165
PBM E-score, CATGAGGG reads -0.0568
PBM E-score, GCCAGAGA reads -0.168

(listing goes on)

Row | Sequence | PBM E-score
201 | ATGGCGGG | -0.0731
202 | CGCTAGAA | -0.00445
203 | CGAGAGGC | -0.29
204 | ACCTACCA | -0.0533
205 | AGGTCGCG | 0.101
206 | GCGTCTAA | -0.113
207 | AAATACTC | 0.00717
208 | CGACTTCC | -0.109
209 | GCGCTTAA | -0.0286
210 | TCGTGGCA | 0.187
211 | CGGCAGCA | -0.108
212 | AGACAAGG | -0.0217
213 | GCCTTTCA | -0.01
214 | GGAGTCAC | -0.0676
215 | GTCCGCAA | -0.236
216 | ATGGCAGG | -0.192
217 | CGCAGCTC | -0.228
218 | ACTATGAA | 0.0687
219 | ATGGGCGA | -0.148
